In the supplement of paper PMC3334620:
Whole data set: some 33,000 sequences, median “E-score (-0.5 to 0.5)” near -0.015, cut for the highest 2% near 0.3. The list shows a part of the results.

Molecular target: T1, Abf1 (UniProt P14164)
T1 sequence: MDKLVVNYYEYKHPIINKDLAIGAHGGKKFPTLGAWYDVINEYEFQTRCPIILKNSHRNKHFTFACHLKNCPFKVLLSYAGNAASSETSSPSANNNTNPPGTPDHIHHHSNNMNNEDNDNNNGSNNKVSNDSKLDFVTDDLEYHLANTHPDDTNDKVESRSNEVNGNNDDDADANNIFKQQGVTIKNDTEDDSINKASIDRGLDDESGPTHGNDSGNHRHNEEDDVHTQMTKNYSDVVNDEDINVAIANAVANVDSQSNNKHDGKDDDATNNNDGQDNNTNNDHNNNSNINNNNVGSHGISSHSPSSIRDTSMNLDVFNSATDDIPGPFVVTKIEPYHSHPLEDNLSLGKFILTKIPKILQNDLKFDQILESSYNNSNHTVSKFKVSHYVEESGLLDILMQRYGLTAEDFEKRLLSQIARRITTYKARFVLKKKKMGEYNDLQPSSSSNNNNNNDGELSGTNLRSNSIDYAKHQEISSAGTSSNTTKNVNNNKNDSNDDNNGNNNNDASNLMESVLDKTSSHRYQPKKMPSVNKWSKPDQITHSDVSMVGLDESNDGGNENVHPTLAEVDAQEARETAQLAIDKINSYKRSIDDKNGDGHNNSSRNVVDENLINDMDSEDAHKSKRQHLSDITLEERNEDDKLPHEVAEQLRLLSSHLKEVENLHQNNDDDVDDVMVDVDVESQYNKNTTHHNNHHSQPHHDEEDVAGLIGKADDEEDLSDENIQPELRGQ
Assay: PBM E-score (8-mer binding enrichment) (E-score (-0.5 to 0.5)); higher = stronger / more preferred TF binding
Settings: protein concentration: 200 nM; construct: GST-full length
How it was run: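 PURExpress in vitro transcription/translation supplied GST-tagged yeast transcription factors, either full-length or DNA-binding domain. Applied at about 100-200 nM to universal all-10-mer Agilent arrays double-stranded by primer extension, the bound protein was detected with fluorescent anti-GST. E-scores, modified Wilcoxon-Mann-Whitney statistics, were given by the Universal PBM Analysis Suite to ungapped eight-base words pooled with their reverse complements after masliner normalisation.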

Sequence	PBM E-score
AGTGCATC	0.0918
ACAACCCA	-0.0167
GTCTACTA	0.11
ACAACGGC	0.218
ATGATGAG	0.141
CAGCACGC	0.0115
CGCACCCA	-0.272
ACGTTATA	0.26
CCAGGATA	0.126
CATGCGGA	-0.155
ACACACAG	-0.0168
AGTGCACC	-0.127
CAAATGAA	-0.155
TCCCCCCA	-0.448
AAAACCCC	-0.137
TCTACACA	-0.0425
CCCGCAGA	-0.203
GCCTTGAA	-0.166
AATCCTAG	-0.0394
ATGCGATA	0.158
GCGGTTTA	-0.161
ATGCGAGG	0.00416
CAAGGGCC	-0.282
AAGTTCCA	-0.0476
ATAGTTTG	0.0679

Sequence	PBM E-score
AGCCACGC	-0.0379
AAATTGCC	0.0392
CCGCGACC	-0.0179
TAAAGTTA	0.11
GAGGCTCC	-0.183
AAACGTTC	0.0878
AGCTAGAA	0.0282
AGCTGAGA	-0.142
GGACGACC	0.0608
CAGCAACG	0.231
CCCGGTCG	-0.112
ATGGCTCC	-0.00305
AGCAGCGG	-0.0956
ACCGCTCT	-0.234
CTGATCTA	-0.106
CTACCCCA	-0.155
GTGCTGTA	0.12
GAGACCGC	-0.175
CGCTTGTC	0.0052
CCAGCATC	-0.074
AATCGTAA	0.145
CATGAATC	0.0674
CCAATGGC	-0.202
AGTCAGCC	-0.181
CCGAGTCA	-0.117

Sequence	PBM E-score
TACCCGGA	-0.014
GATAAAAC	0.246
CAATCATA	0.166
TAAGGGCA	-0.0518
ATCGGTAG	-0.00682
ACCAGGGC	-0.229
AACACTGC	-0.155
ACTACGGA	0.105
ATTCAAGC	0.0602
TCTGGTCA	0.0314
CACTAGGC	-0.201
AGGAGTGG	-0.171
CACCAAAA	0.138
ATAAAGAA	0.178
AAAAGGTA	0.106
ACTCCGAA	-0.00935
CATGTAAA	0.102
ACTATTAG	0.0644
TAGTCATA	0.0833
GGAAGACA	-0.0867
AATACCAT	0.0929
AAATGAGT	0.0345
ACGAAAGT	0.146
GCAAGCGC	-0.201
GGACACCC	-0.172

Sequence	PBM E-score
AAGCGAGC	-0.0257
TGGACCCA	-0.0266
AACCAATC	-0.0716
ATACATAG	0.0748
CATGACAG	0.0583
ATAAGAGA	0.0975
GTGAAATA	0.196
ATAAAACC	-0.0345
CTACGCGA	-0.0125
AACTTCAA	0.00511
CAGCTTAA	-0.00327
GAACCTGA	-0.24
CATCGCAA	0.0111
ACACGACT	0.0619
GGACAACA	0.144
ACCTTCGA	-0.0559
TGCGCCCA	-0.0332
TGACAAAA	0.304
AGATACAT	0.145
TCACGGGA	0.263
CCCGTCAG	-0.173
AACTGTGA	0.0999
GGAAAGTA	0.102
ACCCCTCA	-0.291
CACGACTG	0.222

Sequence	PBM E-score
CCTACGGC	0.226
TCGCGGCA	0.239
GATCATAA	0.215
AGTCCTAC	-0.047
AAACATAC	-0.0274
CATTAATC	0.212
AGGACCAT	-0.0408
GGAGGTCA	0.0571
ATGCGATC	0.0608
AGGTTGCG	-0.158
TACGGTCA	0.196
CGAGCTAC	-0.0169
ACCGTTGC	0.0812
CCCAAATA	0.00823
GAAGACCC	-0.253
TAAATGGA	0.0566
ATGTCAAG	-0.0386
AAATAGGC	0.00611
AGTATGGG	-0.169
CTAATAGC	0.137
CATAAGAA	0.202
GGAGCCTA	-0.064
AAGTGCGC	-0.0287
GTATAAAC	0.22
GAGGCGCA	-0.152

Sequence	PBM E-score
ATGAAAGG	-0.082
GCGAACCA	-0.00083
CCACGCAG	-0.0309
CGACTCCC	0.00827
ACCATACT	-0.0562
TAAGAAGA	0.219
ATACCGAT	-0.0929
AAAGATGC	0.141
AATTATAA	0.139
TACCTTGA	0.12
AACAGCTT	-0.13
ATCGCGCC	-0.0162
GGAGTAAA	0.17
CGGAGCGA	0.174
AACCATAT	0.0432
GGTTAGGA	-0.107
GCCAAGAA	-0.0222
TCTCAAAA	0.0551
CAAGTGGC	-0.217
CGGCTCCC	-0.163
CGCGCTTC	-0.0759
CACCTGAC	0.0764
ATAAGCTG	-0.127
ATTCGGGG	-0.057
TAGACATA	0.0778

Sequence	PBM E-score
AGACTCAT	-0.0329
ACTCAGAG	-0.158
AGGGTACT	-0.197
ATCCAGCG	0.0305
CTAGTATA	0.0664
ACGAACCT	0.146
ATTCGGAA	0.0588
CGCACAAA	0.0122
GCACCGTA	0.0841
GGTGCGGA	-0.0586
GCCTTACC	-0.255
AACTACAA	0.106
AGTTCCGG	-0.087
AATGATGT	0.325
GAAGCCTC	-0.104
TGAGTCCA	-0.00076
CCTACTGA	-0.18
ACACGGAG	0.0978
CTCTTTCC	-0.418
CAGACAAC	-0.0277
ATGTAACC	-0.0595
ACTCGGTG	-0.0947

Copied from the listing (seven entries):
Sequence	PBM E-score
GGAAAGTA	0.102
ACCCCTCA	-0.291
CACGACTG	0.222
CCTACGGC	0.226
TCGCGGCA	0.239
GATCATAA	0.215
AGTCCTAC	-0.047

Given field by field: part of the list above.
AATCGTAA
  PBM E-score = 0.145
CATGAATC
  PBM E-score = 0.0674
CCAATGGC
  PBM E-score = -0.202
AGTCAGCC
  PBM E-score = -0.181
